Measurements from “University of Dundee, Small-Polar-MMV Screening Library” (2021), ChEMBL document CHEMBL3988442.

The chains behind the UniProt entries cited, without tags or fusion partners. Residues count along the entry.
UniProt I6X8D2, whole entry: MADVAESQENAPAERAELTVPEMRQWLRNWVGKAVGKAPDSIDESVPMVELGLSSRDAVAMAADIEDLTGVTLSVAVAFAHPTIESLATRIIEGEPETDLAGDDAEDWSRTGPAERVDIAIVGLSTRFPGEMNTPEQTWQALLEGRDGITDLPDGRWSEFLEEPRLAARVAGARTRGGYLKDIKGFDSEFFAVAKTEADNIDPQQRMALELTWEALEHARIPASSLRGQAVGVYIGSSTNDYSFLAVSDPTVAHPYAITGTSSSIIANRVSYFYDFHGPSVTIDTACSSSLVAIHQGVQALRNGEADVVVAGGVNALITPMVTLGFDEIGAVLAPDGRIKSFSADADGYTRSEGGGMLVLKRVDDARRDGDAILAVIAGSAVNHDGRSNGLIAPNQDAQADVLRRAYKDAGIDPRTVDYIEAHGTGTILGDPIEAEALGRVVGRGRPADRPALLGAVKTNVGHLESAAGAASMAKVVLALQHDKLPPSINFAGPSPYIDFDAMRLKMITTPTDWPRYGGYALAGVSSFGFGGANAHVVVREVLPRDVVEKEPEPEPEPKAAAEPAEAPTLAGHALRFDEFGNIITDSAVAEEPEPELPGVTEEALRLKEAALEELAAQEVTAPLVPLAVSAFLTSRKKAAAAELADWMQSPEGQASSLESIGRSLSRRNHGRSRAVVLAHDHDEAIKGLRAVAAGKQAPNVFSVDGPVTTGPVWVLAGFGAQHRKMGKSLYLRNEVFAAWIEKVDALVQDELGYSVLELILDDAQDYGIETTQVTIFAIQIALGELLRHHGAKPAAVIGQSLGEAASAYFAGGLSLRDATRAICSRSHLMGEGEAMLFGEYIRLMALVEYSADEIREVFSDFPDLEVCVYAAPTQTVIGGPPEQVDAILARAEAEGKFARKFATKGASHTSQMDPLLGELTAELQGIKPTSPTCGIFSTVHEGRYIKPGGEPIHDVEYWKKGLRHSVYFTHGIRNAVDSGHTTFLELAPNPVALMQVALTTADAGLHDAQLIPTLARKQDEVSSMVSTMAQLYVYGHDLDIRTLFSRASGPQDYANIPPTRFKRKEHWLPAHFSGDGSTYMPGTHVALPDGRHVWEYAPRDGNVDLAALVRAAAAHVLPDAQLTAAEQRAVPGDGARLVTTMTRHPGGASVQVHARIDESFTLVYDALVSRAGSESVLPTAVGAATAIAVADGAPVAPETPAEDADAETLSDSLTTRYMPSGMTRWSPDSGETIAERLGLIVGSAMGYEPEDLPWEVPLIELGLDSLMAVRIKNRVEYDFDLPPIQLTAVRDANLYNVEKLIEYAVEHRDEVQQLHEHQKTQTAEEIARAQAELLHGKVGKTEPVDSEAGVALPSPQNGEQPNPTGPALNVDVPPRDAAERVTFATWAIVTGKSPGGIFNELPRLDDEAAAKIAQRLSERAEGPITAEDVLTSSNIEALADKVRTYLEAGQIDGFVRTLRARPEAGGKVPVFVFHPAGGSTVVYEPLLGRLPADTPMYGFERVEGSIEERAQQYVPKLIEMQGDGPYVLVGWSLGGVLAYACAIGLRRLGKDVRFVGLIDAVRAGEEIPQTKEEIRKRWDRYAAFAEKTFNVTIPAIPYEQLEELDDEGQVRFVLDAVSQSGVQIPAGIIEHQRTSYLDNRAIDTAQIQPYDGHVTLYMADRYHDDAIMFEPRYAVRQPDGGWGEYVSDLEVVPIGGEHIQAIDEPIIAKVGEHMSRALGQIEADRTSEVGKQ
UniProt P9WNZ1, whole entry: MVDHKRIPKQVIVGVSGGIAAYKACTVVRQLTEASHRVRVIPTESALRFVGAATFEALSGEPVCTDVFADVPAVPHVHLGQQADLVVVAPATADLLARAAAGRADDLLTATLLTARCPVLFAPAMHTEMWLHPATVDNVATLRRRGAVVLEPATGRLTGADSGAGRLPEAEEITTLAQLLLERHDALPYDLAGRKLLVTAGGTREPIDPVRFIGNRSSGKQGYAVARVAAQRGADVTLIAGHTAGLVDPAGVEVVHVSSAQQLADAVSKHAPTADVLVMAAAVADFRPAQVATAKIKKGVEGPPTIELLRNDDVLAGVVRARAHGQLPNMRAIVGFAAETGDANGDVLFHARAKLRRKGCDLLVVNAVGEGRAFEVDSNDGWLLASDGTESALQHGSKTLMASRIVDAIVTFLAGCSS
UniProt P9WFT3, whole entry: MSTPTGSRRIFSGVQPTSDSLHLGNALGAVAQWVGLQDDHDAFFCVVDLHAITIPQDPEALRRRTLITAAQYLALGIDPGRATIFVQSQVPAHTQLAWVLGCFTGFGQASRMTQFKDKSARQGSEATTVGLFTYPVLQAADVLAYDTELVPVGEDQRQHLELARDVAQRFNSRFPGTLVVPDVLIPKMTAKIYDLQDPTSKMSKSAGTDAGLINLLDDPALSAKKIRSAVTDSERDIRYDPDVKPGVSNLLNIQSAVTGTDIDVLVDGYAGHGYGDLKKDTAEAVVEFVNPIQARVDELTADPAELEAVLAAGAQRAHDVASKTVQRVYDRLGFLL
UniProt A4I591, 1-473: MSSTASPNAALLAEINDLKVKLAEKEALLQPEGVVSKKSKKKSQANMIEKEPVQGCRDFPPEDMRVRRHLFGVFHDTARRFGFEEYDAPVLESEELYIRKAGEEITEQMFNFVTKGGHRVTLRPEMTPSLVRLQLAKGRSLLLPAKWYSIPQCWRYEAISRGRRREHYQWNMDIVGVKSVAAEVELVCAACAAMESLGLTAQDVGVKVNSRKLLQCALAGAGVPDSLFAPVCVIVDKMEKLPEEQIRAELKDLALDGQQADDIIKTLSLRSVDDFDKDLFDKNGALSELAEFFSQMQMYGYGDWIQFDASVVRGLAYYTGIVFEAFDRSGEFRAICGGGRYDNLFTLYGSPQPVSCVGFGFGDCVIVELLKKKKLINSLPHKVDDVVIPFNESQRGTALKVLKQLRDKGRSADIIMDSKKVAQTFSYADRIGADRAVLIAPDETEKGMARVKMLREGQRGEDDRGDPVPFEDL
UniProt Q4DA54, 1-478: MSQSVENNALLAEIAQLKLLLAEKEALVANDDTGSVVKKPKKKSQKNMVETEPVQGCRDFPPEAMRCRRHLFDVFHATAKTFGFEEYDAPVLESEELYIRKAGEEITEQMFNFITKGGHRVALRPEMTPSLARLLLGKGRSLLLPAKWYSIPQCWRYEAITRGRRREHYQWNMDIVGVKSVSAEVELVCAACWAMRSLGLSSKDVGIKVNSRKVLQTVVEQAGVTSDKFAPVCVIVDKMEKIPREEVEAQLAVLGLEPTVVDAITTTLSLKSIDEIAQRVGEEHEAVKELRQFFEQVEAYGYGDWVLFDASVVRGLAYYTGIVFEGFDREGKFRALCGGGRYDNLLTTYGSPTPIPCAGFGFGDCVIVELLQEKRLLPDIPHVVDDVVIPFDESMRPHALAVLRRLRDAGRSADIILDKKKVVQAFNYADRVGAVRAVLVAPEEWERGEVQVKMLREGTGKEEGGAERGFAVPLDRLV

Pks13 thioesterase: 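Enzyme assay of the thioesterase domain of polyketide synthase 13; the read-out is not stated. Target: Polyketide synthase Pks13, Mycobacterium tuberculosis (UniProt I6X8D2). Compounds at 30 µM. Higher reads as stronger inhibition (inferred from which compounds were picked for retests). Of about 67,000 compounds tested this way, about 300 (0.46%) reached 50% or more in at least one test.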
Toxoplasma: 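Assay of Toxoplasma gondii numbers, read through their beta-galactosidase reporter with a colour substrate. Tested at 10 µM. Higher reads as fewer parasites (inferred from which compounds were picked for retests). Of about 67,000 compounds tested this way, about 260 (0.38%) reached 50% or more in at least one test.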
CoaBC: 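Enzyme assay of CoaBC with a phosphate dye (Biomol Green) read at 650 nm. Target: Coenzyme A biosynthesis protein CoaBC, Mycobacterium tuberculosis (UniProt P9WNZ1). Compounds at 30 µM. Higher reads as stronger inhibition, judged from the few compounds that gave an IC50. Most strong results did not repeat in a second test. Size under these conditions: about 67,000 compounds, about 40 of them at 50% or above in at least one test.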
MtTrpRS: 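Tryptophan-tRNA ligase, Mycobacterium tuberculosis (UniProt P9WFT3). Enzyme assay of tryptophanyl-tRNA synthetase; the read-out is not stated. Tested at 10 µM. Higher most likely means stronger inhibition; the record gives no direction and few retests gave an IC50. Of about 65,000 compounds tested this way, about 64 (0.098%) reached 50% or more in at least one test.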
LiHisRS: 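Histidine-tRNA ligase, Leishmania infantum (UniProt A4I591). Enzyme assay of histidyl-tRNA synthetase; the read-out is not stated. Compounds at 30 µM. The record gives no direction; compounds that gave an IC50 in retests scored well above the rest, so higher reads as stronger inhibition. The assay is labelled LdHisRS but filed under L. infantum. About 69,000 compounds were tested under these conditions; 0.6% (about 410) showed 50% or more at least once.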
TcHisRS: 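Enzyme assay of histidyl-tRNA synthetase; the read-out is not stated. Target: Histidine-tRNA ligase, Trypanosoma cruzi CL Brener (UniProt Q4DA54). Tested at 30 µM. Higher reads as stronger inhibition (inferred: compounds with an IC50 in retests scored well above the rest). Size under these conditions: about 69,000 compounds, about 31 of them at 50% or above in at least one test.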

The filed quantity is “Percent Effect” (%).
The controls that fix the scale are not given in the record; negative values are as filed.
The compounds are a random part of those screened.
Two or more numbers in one place are separate tests of the same structure; such repeats can differ widely.
A dash means the value is not listed here; it may have been measured.

* COc1c(C2CCCN2CC(=O)Nc2nccs2)c(C)nn1C (stereo not given) : Pks13 thioesterase: -19.2%; Toxoplasma: 15.22%; CoaBC: 4.233% & 22.99%; MtTrpRS: 0.3564%; LiHisRS: 13.33%; TcHisRS: 1.739%
* CCC(NC(=O)Nc1ccc(OC)c(C)c1)c1ccncc1 (stereo not given) : Pks13 thioesterase: -45.07%; Toxoplasma: -0.9077%; MtTrpRS: 1.961%; LiHisRS: 20%; TcHisRS: 15.58%
* Cc1noc(C)c1C(=O)NCC(c1cccc(F)c1)N(C)C (stereo not given) : Pks13 thioesterase: 0.4073%; Toxoplasma: -2.65%; CoaBC: 8.842%; MtTrpRS: -3.58%; LiHisRS: 11.01%; TcHisRS: 4.373%
* CCN(Cc1nc2c(cnn2C)c(=O)[nH]1)Cc1ccccc1C : Pks13 thioesterase: 12.52%; Toxoplasma: 2.132%; CoaBC: 11.16%; MtTrpRS: -1.319%; LiHisRS: 9.434%; TcHisRS: -4.167%
* O=C(c1csc(-c2ccco2)n1)N1CCOc2ncccc21 : Pks13 thioesterase: -10.42%; Toxoplasma: -12.36%; CoaBC: -1.025%; MtTrpRS: -0.9025%; LiHisRS: 18.57%; TcHisRS: 2.128%
* COCC1CC2(CCN(Cc3ccc(OC)cc3)CC2)CN1C(C)C.O=C(O)C(F)(F)F.O=C(O)C(F)(F)F (stereo not given) : Toxoplasma: 9.849%
* [H][C@@]12CN(C(=O)c3cccc(C)n3)C[C@]1([H])OCCN2CCN1CCCC1 : Toxoplasma: -21.2%
* COCC(NC(=O)NCc1ccc(C)c(F)c1)c1ccco1 (stereo not given) : Pks13 thioesterase: -16.5%; Toxoplasma: -4.057%; CoaBC: -5.652%; MtTrpRS: -3.757%; LiHisRS: 5.759%; TcHisRS: 12.3%
* COc1ccc(C(=O)C2CCCN(Cc3ccccc3O)C2)c(OC)c1 (stereo not given) : Pks13 thioesterase: -35.96%; Toxoplasma: 8.991%; CoaBC: 3.065%; MtTrpRS: 0.4944%; LiHisRS: -5.195%; TcHisRS: 1.212%
* [H][C@@]12CN(C(=O)c3ccncc3)C[C@]1([H])OCCN2C(C)C : Toxoplasma: -2.882%
* N#Cc1cccc(OCCN2CCCC2C(=O)N2CCSCC2)c1 (stereo not given) : Pks13 thioesterase: -17.33%; Toxoplasma: 6.212%; CoaBC: -12.14%; MtTrpRS: -1.22%; LiHisRS: 12.5%; TcHisRS: 5.263%
* Cc1cccc(CS(=O)(=O)NCC(O)Cc2ccccc2)c1 (stereo not given) : Pks13 thioesterase: 1.944%; Toxoplasma: -1.752%; CoaBC: 1.493%; MtTrpRS: 6.629%; LiHisRS: 19.23%; TcHisRS: 0%
* N#Cc1ccc(N2CCC(NS(=O)(=O)c3cccs3)CC2)c(F)c1 : Pks13 thioesterase: 46.71%; Toxoplasma: 9.94%; CoaBC: 0.1266%; MtTrpRS: -0.136%; LiHisRS: 8.434%; TcHisRS: -3.659%
* CCCN(CC(=O)NC)C(=O)c1ccc(-c2ccsc2)nc1C : Pks13 thioesterase: -6.582%; Toxoplasma: -4.245%; CoaBC: 5.907%; MtTrpRS: -1.137%; LiHisRS: 18.27%; TcHisRS: 1.626%
* O=C(O)[C@@H]1CN(Cc2c[nH]c(CC3CCCC3)n2)C[C@H]1c1ccncc1 : Pks13 thioesterase: -38.19%; Toxoplasma: 3.991%; MtTrpRS: 3.734%; LiHisRS: 9.859%; TcHisRS: 7.006%
* CC1c2ncc(Cn3cncn3)n2CCN1C1CCOCC1.O=C(O)C(F)(F)F (stereo not given) : Toxoplasma: -0.9615%
* O=C(O)C(F)(F)F.[H][C@@]12COC[C@H](C(=O)N3CCCCO3)[C@]1([H])CN(Cc1ccc(C)o1)C2 : Toxoplasma: 0.1664%

Once more, the final 2:

structure,Pks13 thioesterase,Toxoplasma,CoaBC,MtTrpRS,LiHisRS,TcHisRS
CC1c2ncc(Cn3cncn3)n2CCN1C1CCOCC1.O=C(O)C(F)(F)F (stereo not given),-,-0.9615,-,-,-,-
O=C(O)C(F)(F)F.[H][C@@]12COC[C@H](C(=O)N3CCCCO3)[C@]1([H])CN(Cc1ccc(C)o1)C2,-,0.1664,-,-,-,-